Test results: PMC11610139
Results are given in words; binding and its absence hold for the method and conditions named. In cells and extracts the contact can be indirect. Binding calls can cover weak binding; strength is not graded here.

Target: T1, HDAC7 (UniProt Q8WUI4)
T1 sequence: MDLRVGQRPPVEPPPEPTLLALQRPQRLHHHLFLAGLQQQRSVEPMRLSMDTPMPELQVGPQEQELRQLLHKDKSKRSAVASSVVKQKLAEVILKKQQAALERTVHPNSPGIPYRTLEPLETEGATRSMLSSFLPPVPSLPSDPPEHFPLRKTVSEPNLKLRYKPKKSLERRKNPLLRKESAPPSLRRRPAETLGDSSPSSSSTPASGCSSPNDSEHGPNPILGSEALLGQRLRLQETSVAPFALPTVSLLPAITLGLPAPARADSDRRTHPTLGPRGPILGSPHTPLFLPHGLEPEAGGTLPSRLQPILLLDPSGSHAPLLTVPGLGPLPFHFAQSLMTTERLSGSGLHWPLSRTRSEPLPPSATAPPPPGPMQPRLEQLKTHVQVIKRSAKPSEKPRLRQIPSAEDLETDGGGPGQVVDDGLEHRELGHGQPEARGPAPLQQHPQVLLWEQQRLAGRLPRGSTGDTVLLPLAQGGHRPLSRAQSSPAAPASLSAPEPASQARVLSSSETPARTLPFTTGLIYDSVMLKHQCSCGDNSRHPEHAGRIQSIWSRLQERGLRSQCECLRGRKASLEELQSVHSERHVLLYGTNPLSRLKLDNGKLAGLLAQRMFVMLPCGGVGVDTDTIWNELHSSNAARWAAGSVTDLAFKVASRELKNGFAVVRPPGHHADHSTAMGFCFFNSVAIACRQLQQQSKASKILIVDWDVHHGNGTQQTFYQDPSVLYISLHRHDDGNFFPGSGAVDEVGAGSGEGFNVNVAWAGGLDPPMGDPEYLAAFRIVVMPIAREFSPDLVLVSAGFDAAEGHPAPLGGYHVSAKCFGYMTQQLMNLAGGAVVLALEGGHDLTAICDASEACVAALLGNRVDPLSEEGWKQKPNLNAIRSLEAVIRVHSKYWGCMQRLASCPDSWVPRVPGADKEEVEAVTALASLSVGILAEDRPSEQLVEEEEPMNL
Test: co-IP; lysates of GSC20, in part transfected with the indicated plasmids or vectors (Figure 2B, K, N, Q; TRIM28 knock-down in Figure 2Q)

- binding: binds
Substance: RING domain of MYCBP2 (human) (domain or fragment)
